Measured values taken from patent publication US20140294817A1.
These are yes or no findings as the source states them, for the method shown. Binding can be weak; no strength is given. Tags and fused reporters may be left off the sequences shown.

What was measured:
Fcγ-receptor IV (mice) [1] = assay: flow cytometry on HeLa cells expressing FcγRIV
Fcγ-receptor IV (mice) [2] = assay: flow cytometry saturation binding curves (FIG. 61D)
Fcγ-receptor IV (mice) [3] = assay: flow cytometry on HeLa cells expressing FcγRIV (FIG. 56E)

Measured: binding

B1: polypeptide comprising a first and second Fc fragment of rabbit IgG in dimeric form (Fc fusion)
chain: GGSHHHHHHGMASMTGGQQMGRDLYDDDDKAPSTCSKPTCPPPELLGGPSVFIFPPKPKDTLMISRTPEVTCVVVDVSQDDPEVQFTWYINNEQVRTARPPLREQQFNSTIRVVSTLPIAHQDWLRGKEFKCKVHNKALPAPIEKTISKARGQPLEPKVYTMGPPREELSSRSVSLTCMINGFYPSDISVEWEKNGKAEDNYKTTPAVLDSDGSYFLYSKLSVPTSEWQRGDVFTCSVMHEALHNHYTQKSISRSPGKDIVRSSKPTCPPPELLGGPSVFIFPPKPKDTLMISRTPEVTCVVVDVSQDDPEVQFTWYINNEQVRTARPPLREQQFNSTIRVVSTLPIAHQDWLRGKEFKCKVHNKALPAPIEKTISKARGQPLEPKVYTMGPPREELSSRSVSLTCMINGFYPSDISVEWEKNGKAEDNYKTTPAVLDSDGSYFLYSKLSVPTSEWQRGDVFTCSVMHEALHNHYTQKSISRSPGK
binds: all assays above
